A short description of this data set: general procedure: solution-phase peptide synthesis; Boc-Tyr-OSu (active ester), triethylamine in DMF. The settings on record: late stage modification step.

Here are results for 1 substance from patent publication US5290576A (Pliva Farmaceutska, priority 1990, dated 1994).

“tert-Butyloxycarbonyl-L-tyrosyl-peptidoglycan monomer”: the step yield is listed as 46%.
